Results as given in PMC12477566.
For at least one entry, the source does not settle the construct or the ends of the probe. For part of these data: At least one verdict was read from the data and is not stated in words by the source.

Experiments:
[1] = test system: SmD1 + SmD2-EGF + SmG + SmE + SmF + SmD3 + SmB1-95-H5E; experiment: size exclusion chromatography, SDS-PAGE; details: complex purified at 4 °C, recombinant protein
[2] = test system: SmD1 + SmD2 + SmG + SmE + SmF + SmD3 + SmB1-95; experiment: size exclusion chromatography, SDS-PAGE; details: complex purified at 4 °C, recombinant protein
[3] = test system: SmD1 + SmD2-EGF + SmG + SmE + SmF + SmD3 + SmB1-95; experiment: size exclusion chromatography, SDS-PAGE; details: complex purified at 4 °C, recombinant protein
[4] = test system: SmD1 + SmD2-FGF1 + SmG + SmE + SmF + SmD3 + SmB1-95-H5E; experiment: in vitro reconstitution; details: SmiRNP-FGF1-H5E; complex purified at 4 °C; recombinant protein
[5] = test system: SmD1 + SmD2-VEGF-A + SmG + SmE + SmF + SmD3 + SmB1-95-H5E; experiment: in vitro reconstitution; details: SmiRNP-VEGF-A-H5E; complex purified at 4 °C; recombinant protein
[6] = test system: SmD1 + SmD2-EGF + SmG + SmE + SmF + SmD3 + SmB1-95-H5E; experiment: nuclease protection, Urea-PAGE; details: mouse serum, up to 18 h; complex purified at 4 °C; recombinant protein
[7] = test system: SmD1 + SmD2-EGF + SmG + SmE + SmF + SmD3 + SmB1-95-H5E; experiment: size exclusion chromatography with SDS-PAGE and Urea-PAGE; details: SmiRNP-EGF-H5E; complex purified at 4 °C; recombinant protein

Measured: binding result

CAAUUUUUGAUUAAUAGGUAGUGGCAUACGCUUCUU / GAAGCGUAUGCCACUACCUAUUAA [siNC]
binds: [1]; SmiRNP-EGF-H5E siNC

CAAUUUUUGAUCUGAAUUAGCUGUAUCGUCAAGGUU / CCUUGACGAUACAGCUAAUUCAGA [FAM-siKRAS]
binds: [2]; FAM-SmiRNP, label: 5'-FAM on antisense | [1]; FAM-SmiRNP-EGF-H5E, label: 5'-FAM on antisense | [3]; FAM-SmiRNP-EGF, label: 5'-FAM on antisense

CAAUUUUUGAUCUGAAUUAGCUGUAUCGUCAAGGUU / CCUUGACGAUACAGCUAAUUCAGA [Cy5.5-siKRAS]
binds: [2]; Cy5.5-SmiRNP, label: 5'-Cy5.5 on antisense | [1]; Cy5.5-SmiRNP-EGF-H5E, label: 5'-Cy5.5 on antisense

CAAUUUUUGAUCUGAAUUAGCUGUAUCGUCAAGGUU / CCUUGACGAUACAGCUAAUUCAGA [siKRAS]
binds: [4] | [5] | [6] | [2]; SmiRNP | [3]; SmiRNP-EGF | [7]
